These results are taken from patent US20260151620A1, “IMPLANT MEDICAL DEVICES” (Case Western Reserve University, priority 2021, published 2026).

The nature of the data set: In vitro drug release from drug-loaded titania nanotube arrays (TNAs) in PBS at 37° C. It counts as physicochemical. As to the method:
A total of 500 μL of DEX solution was pipetted onto the nanotube surface (pipetting 100 μL for 5 times) and allowed to dry in fume hood for an hour, ensuring that the nanotube array surface was completely dry prior to each pipetting and the release studies. Then, DEX-loaded TNA samples were immersed in Eppendorf tubes containing 100 μL of PBS (1× phosphate buffered saline) and were placed in a water bath kept at 37° C. For release measurements, all 100 μL from each releasing sample tube was transferred to a 96-well plate and measured using a SpectraMax M 2 Microplate Reader. The absorption of DEX was measured at 244 nm. After each measurement, the releasing medium was fully replaced with […] of fresh PBS.

With `C[C@@H]1C[C@H]2[C@@H]3CCC4=CC(=O)C=C[C@]4(C)[C@@]3(F)[C@@H](O)C[C@]2(C)[C@@]1(O)C(=O)COP(=O)(O)O` [Dexamethasone, dexamethasone sodium phosphate], the “duration of linear release” value is recorded as “several weeks” (TNAs on polyimide and foil substrates, PBS); “at least 7 weeks” (~0.5 μm-deep, 100 nm-diameter TNAs on polyimide).
